Source: the supplement of paper PMC10849652
Some of the results follow.

By UniProt entry, the sequences of proteins in these tests, tags left out. Where a name states a change or a piece, a line headed by the entry shows the natural chain unless it says otherwise.
UniProt O75061: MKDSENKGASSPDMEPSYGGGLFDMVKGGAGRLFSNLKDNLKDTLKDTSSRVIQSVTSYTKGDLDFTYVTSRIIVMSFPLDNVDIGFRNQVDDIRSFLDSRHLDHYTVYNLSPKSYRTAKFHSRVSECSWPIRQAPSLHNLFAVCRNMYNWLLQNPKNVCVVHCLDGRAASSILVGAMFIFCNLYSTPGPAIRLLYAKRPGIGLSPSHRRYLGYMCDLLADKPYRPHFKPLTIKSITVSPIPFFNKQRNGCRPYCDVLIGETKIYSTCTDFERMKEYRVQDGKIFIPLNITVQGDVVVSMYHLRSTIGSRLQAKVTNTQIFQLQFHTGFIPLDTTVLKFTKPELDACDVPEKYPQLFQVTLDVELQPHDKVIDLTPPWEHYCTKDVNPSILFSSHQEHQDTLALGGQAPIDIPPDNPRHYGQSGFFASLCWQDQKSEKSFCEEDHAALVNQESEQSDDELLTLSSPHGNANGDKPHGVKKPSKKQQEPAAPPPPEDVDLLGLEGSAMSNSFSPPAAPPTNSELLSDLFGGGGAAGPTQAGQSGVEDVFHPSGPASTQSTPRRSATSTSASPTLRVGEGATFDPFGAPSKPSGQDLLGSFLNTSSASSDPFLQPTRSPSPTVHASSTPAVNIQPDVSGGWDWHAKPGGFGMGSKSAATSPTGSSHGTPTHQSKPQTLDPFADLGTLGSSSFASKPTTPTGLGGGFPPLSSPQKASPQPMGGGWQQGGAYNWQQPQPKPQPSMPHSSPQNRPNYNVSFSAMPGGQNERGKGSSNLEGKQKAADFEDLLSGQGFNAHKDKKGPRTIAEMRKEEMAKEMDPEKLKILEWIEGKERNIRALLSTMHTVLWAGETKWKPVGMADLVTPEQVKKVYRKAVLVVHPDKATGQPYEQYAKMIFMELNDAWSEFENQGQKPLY
UniProt Q9NXW2: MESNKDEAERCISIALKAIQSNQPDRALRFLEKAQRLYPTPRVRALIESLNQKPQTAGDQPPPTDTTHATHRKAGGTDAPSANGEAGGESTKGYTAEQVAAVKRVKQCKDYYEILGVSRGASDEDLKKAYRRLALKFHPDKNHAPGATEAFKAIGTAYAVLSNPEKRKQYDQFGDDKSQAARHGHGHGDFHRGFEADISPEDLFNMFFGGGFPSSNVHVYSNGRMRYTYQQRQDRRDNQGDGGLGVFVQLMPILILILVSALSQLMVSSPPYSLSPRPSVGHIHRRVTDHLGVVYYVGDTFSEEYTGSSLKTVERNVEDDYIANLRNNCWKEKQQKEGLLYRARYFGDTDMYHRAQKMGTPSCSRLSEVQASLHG
UniProt Q86YN1: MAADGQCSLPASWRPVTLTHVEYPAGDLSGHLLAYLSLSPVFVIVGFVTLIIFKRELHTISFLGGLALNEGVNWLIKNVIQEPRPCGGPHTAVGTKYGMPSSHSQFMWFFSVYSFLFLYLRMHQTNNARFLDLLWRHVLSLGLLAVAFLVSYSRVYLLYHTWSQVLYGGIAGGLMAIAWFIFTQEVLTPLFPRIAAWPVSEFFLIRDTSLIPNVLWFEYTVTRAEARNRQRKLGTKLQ
UniProt Q9H3H5: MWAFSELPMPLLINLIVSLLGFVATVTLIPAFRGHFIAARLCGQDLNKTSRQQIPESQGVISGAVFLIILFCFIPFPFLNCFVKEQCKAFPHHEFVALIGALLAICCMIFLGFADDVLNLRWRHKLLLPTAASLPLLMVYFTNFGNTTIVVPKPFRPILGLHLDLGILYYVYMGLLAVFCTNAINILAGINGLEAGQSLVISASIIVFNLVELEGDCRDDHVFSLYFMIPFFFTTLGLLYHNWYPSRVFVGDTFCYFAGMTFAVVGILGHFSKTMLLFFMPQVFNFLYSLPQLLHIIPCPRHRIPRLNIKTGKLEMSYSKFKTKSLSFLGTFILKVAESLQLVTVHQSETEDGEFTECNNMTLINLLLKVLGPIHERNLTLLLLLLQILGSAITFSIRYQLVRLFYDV
UniProt Q7L7V1: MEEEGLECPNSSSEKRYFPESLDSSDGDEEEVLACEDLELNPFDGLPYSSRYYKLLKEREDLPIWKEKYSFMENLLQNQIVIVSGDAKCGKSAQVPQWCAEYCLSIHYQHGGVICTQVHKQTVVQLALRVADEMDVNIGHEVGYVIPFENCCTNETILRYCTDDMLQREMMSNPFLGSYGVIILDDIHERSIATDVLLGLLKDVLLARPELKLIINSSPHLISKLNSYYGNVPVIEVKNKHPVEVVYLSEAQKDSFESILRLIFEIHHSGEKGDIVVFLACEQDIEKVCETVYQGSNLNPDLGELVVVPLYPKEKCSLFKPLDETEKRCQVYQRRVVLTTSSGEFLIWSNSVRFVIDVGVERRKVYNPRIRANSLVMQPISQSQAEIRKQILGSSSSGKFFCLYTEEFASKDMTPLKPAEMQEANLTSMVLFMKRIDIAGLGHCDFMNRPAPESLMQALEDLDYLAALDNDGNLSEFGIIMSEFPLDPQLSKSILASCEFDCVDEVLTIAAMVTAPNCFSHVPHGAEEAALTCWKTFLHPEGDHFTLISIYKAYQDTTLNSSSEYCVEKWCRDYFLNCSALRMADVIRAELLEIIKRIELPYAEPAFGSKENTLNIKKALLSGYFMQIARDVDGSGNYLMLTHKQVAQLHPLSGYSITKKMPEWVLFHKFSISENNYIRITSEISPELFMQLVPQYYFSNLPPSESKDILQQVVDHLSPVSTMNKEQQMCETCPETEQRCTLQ
UniProt Q96HY7: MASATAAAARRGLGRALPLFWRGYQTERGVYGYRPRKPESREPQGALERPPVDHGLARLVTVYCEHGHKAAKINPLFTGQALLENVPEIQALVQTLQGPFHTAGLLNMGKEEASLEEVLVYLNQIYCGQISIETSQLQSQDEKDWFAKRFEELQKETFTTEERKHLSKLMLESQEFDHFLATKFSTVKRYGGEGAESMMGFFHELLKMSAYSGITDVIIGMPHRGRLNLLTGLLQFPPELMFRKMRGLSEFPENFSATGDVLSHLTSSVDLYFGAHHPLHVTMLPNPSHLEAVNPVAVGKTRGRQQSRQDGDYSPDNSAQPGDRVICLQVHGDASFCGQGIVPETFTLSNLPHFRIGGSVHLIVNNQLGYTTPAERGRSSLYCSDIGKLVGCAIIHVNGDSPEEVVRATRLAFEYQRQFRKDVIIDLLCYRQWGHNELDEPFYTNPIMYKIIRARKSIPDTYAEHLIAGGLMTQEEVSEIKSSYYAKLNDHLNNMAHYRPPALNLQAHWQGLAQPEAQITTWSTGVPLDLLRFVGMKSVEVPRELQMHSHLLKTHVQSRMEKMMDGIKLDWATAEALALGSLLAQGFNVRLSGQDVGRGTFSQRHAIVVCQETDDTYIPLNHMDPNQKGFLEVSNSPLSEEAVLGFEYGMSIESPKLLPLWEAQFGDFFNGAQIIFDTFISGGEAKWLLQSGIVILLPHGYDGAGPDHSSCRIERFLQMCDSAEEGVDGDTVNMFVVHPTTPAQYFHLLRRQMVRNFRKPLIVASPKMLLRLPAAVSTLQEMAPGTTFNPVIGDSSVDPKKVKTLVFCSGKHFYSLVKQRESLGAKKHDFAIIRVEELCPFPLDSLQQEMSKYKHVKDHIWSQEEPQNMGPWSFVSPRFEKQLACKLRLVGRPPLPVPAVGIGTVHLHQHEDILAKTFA
UniProt Q8TBM8: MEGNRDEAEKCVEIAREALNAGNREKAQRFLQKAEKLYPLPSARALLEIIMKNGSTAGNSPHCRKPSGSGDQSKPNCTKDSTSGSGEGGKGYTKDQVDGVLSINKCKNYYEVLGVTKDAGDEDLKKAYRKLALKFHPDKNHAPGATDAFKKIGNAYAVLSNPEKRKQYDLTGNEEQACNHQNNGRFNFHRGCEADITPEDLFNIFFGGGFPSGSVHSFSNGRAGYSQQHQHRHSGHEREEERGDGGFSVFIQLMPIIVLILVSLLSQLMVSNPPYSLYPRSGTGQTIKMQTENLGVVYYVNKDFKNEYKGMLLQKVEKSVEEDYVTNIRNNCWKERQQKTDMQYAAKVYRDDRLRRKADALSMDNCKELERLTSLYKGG
UniProt Q9H5Z1: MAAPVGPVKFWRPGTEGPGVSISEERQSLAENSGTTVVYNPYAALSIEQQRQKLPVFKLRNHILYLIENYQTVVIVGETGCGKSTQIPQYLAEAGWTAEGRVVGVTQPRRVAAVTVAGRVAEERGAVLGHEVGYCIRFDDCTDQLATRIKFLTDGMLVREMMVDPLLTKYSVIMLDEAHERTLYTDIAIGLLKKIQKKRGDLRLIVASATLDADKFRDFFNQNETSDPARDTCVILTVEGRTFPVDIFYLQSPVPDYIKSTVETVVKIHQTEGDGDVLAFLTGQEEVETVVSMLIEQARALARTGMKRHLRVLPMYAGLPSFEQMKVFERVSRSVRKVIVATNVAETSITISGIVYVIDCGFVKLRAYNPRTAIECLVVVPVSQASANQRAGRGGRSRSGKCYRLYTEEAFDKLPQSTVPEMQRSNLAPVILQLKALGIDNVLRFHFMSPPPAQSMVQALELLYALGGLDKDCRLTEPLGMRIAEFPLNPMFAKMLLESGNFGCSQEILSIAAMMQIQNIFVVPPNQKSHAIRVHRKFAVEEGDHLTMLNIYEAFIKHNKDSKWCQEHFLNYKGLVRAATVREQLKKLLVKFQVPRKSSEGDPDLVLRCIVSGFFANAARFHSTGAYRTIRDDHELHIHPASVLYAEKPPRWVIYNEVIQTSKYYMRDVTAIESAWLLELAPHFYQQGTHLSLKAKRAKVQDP
UniProt Q9UBS4: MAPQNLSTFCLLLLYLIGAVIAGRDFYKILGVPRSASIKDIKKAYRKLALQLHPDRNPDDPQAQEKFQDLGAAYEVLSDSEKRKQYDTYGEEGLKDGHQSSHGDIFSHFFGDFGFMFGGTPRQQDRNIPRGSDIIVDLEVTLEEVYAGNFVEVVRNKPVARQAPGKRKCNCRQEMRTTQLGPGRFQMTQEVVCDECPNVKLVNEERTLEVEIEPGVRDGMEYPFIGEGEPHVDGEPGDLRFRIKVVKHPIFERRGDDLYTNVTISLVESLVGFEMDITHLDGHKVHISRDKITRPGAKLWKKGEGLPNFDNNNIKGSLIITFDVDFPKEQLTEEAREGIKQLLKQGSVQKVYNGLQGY
UniProt Q5SXM8: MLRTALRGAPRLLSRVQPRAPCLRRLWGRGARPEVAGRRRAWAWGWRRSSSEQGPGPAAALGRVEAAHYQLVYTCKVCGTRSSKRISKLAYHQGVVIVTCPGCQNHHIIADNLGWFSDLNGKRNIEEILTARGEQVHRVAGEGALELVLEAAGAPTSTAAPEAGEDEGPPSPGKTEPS
UniProt Q8NDZ4: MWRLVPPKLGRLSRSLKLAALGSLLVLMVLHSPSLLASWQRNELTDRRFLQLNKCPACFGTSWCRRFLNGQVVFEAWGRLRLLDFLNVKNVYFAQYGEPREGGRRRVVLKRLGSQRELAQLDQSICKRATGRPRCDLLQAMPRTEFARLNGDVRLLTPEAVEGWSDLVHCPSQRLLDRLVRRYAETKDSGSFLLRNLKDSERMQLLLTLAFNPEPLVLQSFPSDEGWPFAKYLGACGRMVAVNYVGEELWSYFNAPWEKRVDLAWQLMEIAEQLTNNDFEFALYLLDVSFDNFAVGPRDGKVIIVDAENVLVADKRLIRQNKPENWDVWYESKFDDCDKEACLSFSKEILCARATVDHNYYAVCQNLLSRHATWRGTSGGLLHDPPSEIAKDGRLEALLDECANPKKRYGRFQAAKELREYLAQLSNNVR
UniProt P36957: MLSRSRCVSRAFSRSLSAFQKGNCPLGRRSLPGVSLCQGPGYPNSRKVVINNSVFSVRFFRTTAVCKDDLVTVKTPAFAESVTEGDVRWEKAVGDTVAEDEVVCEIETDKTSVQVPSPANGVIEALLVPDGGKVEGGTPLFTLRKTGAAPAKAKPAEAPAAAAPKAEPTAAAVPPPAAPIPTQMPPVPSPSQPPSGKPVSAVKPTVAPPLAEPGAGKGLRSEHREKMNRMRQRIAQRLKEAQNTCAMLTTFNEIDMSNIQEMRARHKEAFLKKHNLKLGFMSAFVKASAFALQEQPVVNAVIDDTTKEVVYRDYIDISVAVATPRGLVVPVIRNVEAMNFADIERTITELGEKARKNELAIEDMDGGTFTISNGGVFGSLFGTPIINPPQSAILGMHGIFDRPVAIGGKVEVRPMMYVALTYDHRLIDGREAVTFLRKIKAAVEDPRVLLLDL
UniProt O00115: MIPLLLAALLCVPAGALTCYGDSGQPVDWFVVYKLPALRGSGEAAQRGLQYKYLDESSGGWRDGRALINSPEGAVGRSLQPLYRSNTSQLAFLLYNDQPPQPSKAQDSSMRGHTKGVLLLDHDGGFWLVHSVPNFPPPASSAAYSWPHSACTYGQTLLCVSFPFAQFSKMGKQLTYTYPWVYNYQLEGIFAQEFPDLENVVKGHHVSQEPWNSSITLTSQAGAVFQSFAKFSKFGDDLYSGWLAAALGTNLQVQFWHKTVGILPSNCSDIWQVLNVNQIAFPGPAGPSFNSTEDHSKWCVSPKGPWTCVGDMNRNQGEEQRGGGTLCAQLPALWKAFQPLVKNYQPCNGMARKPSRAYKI
UniProt Q96GE9: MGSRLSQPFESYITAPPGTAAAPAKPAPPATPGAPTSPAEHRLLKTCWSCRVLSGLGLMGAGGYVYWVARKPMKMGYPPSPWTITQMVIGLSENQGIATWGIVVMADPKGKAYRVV

What was measured:
Experiment in all cases: log2 fold change, soluble protein after heating vs DMSO (PISA); higher = thermal stabilisation; K562 lysate, 10 uM; active = over 0.2 and 3.5 SD of the protein, either way, in both replicates (recomputed)
alvocidib = compound: CN1CC[C@H](c2c(O)cc(O)c3c(=O)cc(-c4ccccc4Cl)oc23)[C@H](O)C1 [alvocidib]
Method in brief: (§1)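 Thermal stability, expressed as log-two fold change relative to solvent controls, is given from duplicates. Crude K562 extract in PBS pH 7.4 with 1 mM MgCl2, at 1 mg/mL protein, was treated with 10 μM compound for 30 min and heated in aliquots for 3 min across 48°C-58°C. After pooling, adjustment to 0.5% NP-40 at 4°C and centrifugation at 21,000xg for 90 min, supernatant protein was measured by TMTpro 16plex LC-MS/MS with channel sums equalised.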

Tubastatin A = compound: CN1CCc2c(c3ccccc3n2Cc2ccc(C(=O)NO)cc2)C1 [Tubastatin A]
Method in brief: as §1

[1] = compound: CNC(=O)C1=CC=CC=C1NC2=NC(=NC=C2Cl)NC3=C(C=C(C=C3)N4CCOCC4)OC
Method in brief: as §1

defactinib = compound: CNC(=O)c1ccc(Nc2ncc(C(F)(F)F)c(NCc3nccnc3N(C)S(C)(=O)=O)n2)cc1 [defactinib]
Method in brief: as §1

[2] = compound: CNc1nc(-c2ccc3c(N)n[nH]c3c2)cc(N2C[C@@H](C(=O)NC3CCCCC3)CC[C@H]2C)n1
Method in brief: as §1

encorafenib = compound: COC(=O)N[C@@H](C)CNc1nccc(-c2cn(C(C)C)nc2-c2cc(Cl)cc(NS(C)(=O)=O)c2F)n1 [encorafenib]
Method in brief: as §1

[3] = compound: COC(=O)[C@H](CCSC)NC(=O)C1=C(C=C(C=C1)NC[C@H](CS)N)C2=CC=CC=C2
Method in brief: as §1

alisertib = compound: COc1cc(Nc2ncc3c(n2)-c2ccc(Cl)cc2C(c2c(F)cccc2OC)=NC3)ccc1C(=O)O [alisertib]
Method in brief: as §1

[4] = compound: COc1cc2nc(-c3cc(F)ccc3O)nc(N[C@@H]3CNC[C@H]3C(C)(C)O)c2cc1OC
Method in brief: as §1

gefitinib = compound: COc1cc2ncnc(Nc3ccc(F)c(Cl)c3)c2cc1OCCCN1CCOCC1 [gefitinib]
Method in brief: as §1

Measured: log2 fold change

DNAJC1 (UniProt Q96KC8)
inactive: alvocidib 0.016 | Tubastatin A -0.053 | [1] 0.013 | defactinib 0.06 | [2] -0.059 | encorafenib 0.056 | [3] -0.257 | alisertib 0.038 | [4] -0.104 | gefitinib 0.041

DNAJC6 isoform 2 (UniProt O75061)
inactive: alvocidib -0.038 | Tubastatin A -0.002 | [1] 0.007 | defactinib 0.005 | [2] 0.042 | encorafenib 0.06 | [3] -0.075 | alisertib -0.013 | [4] 0.005 | gefitinib 0.048

DOCK2 (UniProt Q92608)
inactive: alvocidib -0.199 | Tubastatin A -0.071 | [1] 0 | defactinib -0.185 | [2] 0.044 | encorafenib -0.032 | [3] -0.077 | alisertib -0.122 | [4] 0.102 | gefitinib 0.004

DPCD (UniProt Q9BVM2)
inactive: alvocidib 0.012 | Tubastatin A -0.036 | [1] 0.054 | defactinib 0 | [2] -0.027 | encorafenib 0.01 | [3] -0.087 | alisertib 0.016 | [4] -0.008 | gefitinib -0.021

DNAJC7 (UniProt Q99615)
inactive: alvocidib -0.018 | Tubastatin A -0.203 | [1] 0.059 | defactinib 0 | [2] 0.018 | encorafenib 0.08 | [3] 0.028 | alisertib 0.018 | [4] -0.078 | gefitinib 0.018

DNAJB12 (UniProt Q9NXW2)
inactive: alvocidib 0.026 | Tubastatin A 0.021 | [1] -0.052 | defactinib 0.03 | [2] 0.038 | encorafenib 0.03 | [3] 0.004 | alisertib -0.031 | [4] -0.046 | gefitinib -0.007

DOCK9 isoform 4 (UniProt Q9BZ29)
inactive: alvocidib -0.025 | Tubastatin A -0.044 | [1] 0.039 | defactinib -0.008 | [2] -0.021 | encorafenib 0.011 | [3] -0.029 | alisertib -0.008 | [4] 0.03 | gefitinib -0.01

DMAP1 (UniProt Q9NPF5)
inactive: alvocidib 0.095 | Tubastatin A -0.045 | [1] 0.005 | defactinib 0.008 | [2] -0.026 | encorafenib 0.039 | [3] 0.049 | alisertib -0.106 | [4] -0.047 | gefitinib 0.055

DHX30 isoform 2 (UniProt Q7L2E3)
inactive: alvocidib -0.007 | Tubastatin A -0.037 | [1] 0.02 | defactinib 0.012 | [2] 0.002 | encorafenib 0.03 | [3] -0.154 | alisertib -0.018 | [4] -0.011 | gefitinib 0

DOLPP1 (UniProt Q86YN1)
inactive: alvocidib -0.032 | Tubastatin A -0.054 | [1] -0.044 | defactinib -0.012 | [2] -0.022 | encorafenib 0.03 | [3] 0.009 | alisertib -0.016 | [4] -0.035 | gefitinib 0.03

DOCK8 (UniProt Q8NF50)
inactive: alvocidib 0.019 | Tubastatin A -0.098 | [1] 0.007 | defactinib 0.001 | [2] -0.073 | encorafenib 0.003 | [3] 0.05 | alisertib -0.01 | [4] 0.014 | gefitinib 0.005

DPAGT1 (UniProt Q9H3H5)
inactive: alvocidib -0.075 | Tubastatin A -0.048 | [1] 0.077 | alisertib -0.021 | [4] 0.045 | gefitinib 0.045

DHX32 (UniProt Q7L7V1)
inactive: alvocidib 0.019 | Tubastatin A 0.027 | [1] 0.044 | defactinib -0.043 | encorafenib 0.062 | [3] 0.048 | alisertib 0.017 | gefitinib 0.02

DHTKD1 (UniProt Q96HY7)
inactive: alvocidib 0.028 | Tubastatin A 0.072 | [1] 0.109 | alisertib -0.198 | [4] -0.022 | gefitinib 0.007

DMAC2 isoform 4 (UniProt Q9NW81)
inactive: alvocidib 0.079 | Tubastatin A 0.311 | [1] -0.003 | defactinib 0 | encorafenib -0.021 | [3] -0.008 | alisertib -0.034 | [4] 0.082 | gefitinib 0.055

DNAJB14 (UniProt Q8TBM8)
inactive: alvocidib -0.014 | Tubastatin A -0.01 | [1] -0.029 | defactinib 0.019 | [2] 0.033 | encorafenib -0.047 | [3] -0.096 | alisertib 0.039 | [4] 0.09 | gefitinib -0.026

DHX35 (UniProt Q9H5Z1)
inactive: alvocidib 0.085 | Tubastatin A -0.136 | [1] 0.026 | defactinib 0.087 | [2] -0.01 | encorafenib 0.058 | [3] 0.172 | alisertib 0.014 | [4] -0.021 | gefitinib -0.094

DNAJB11 (UniProt Q9UBS4)
inactive: alvocidib -0.017 | Tubastatin A 0.064 | [1] -0.017 | defactinib -0.013 | [2] 0.017 | encorafenib 0.011 | [3] -0.014 | alisertib 0.047 | [4] 0.01 | gefitinib -0.003

DHRS4L1 (UniProt P0CG22)
inactive: alvocidib 0.08 | Tubastatin A -0.021 | [1] 0.008 | defactinib -0.035 | [2] 0.223 | encorafenib -0.027 | [3] -0.02 | [4] 0.029

DNAH5 (UniProt Q8TE73)
inactive: alvocidib -0.189 | Tubastatin A 0.073 | [1] -0.032 | defactinib -0.014 | [2] -0.051 | alisertib -0.029 | [4] -0.019 | gefitinib 0.052

DNLZ (UniProt Q5SXM8)
inactive: alvocidib 0.03 | Tubastatin A 0.135 | [1] 0.013 | alisertib 0.061 | [4] -0.085 | gefitinib -0.027

DGKH (UniProt Q86XP1)
inactive: alvocidib 0.039 | Tubastatin A 0.155 | [1] 0.037 | defactinib -0.072 | [2] -0.104 | encorafenib 0.014 | [3] 0.094 | alisertib 0.045 | gefitinib 0.226

DNAJB1 (UniProt M0R128)
inactive: alvocidib -0.073 | Tubastatin A 0.152 | [1] -0.029 | alisertib 0.109 | [4] 0.028 | gefitinib 0.347

DNA2 (UniProt P51530)
inactive: alvocidib -0.116 | Tubastatin A -0.15 | [1] -0.009 | defactinib -0.039 | [2] -0.035 | encorafenib 0.123 | [3] -0.098 | alisertib -0.007 | gefitinib 0.036

DHX34 (UniProt Q14147)
inactive: alvocidib -0.057 | Tubastatin A 0.065 | [1] 0.017 | defactinib -0.074 | [2] 0.08 | encorafenib -0.015 | [3] -0.055 | alisertib -0.022 | gefitinib -0.08

DIPK2A (UniProt Q8NDZ4)
inactive: alvocidib -0.075 | Tubastatin A 0.017 | [1] 0.033 | defactinib -0.01 | [2] 0.039 | encorafenib 0.211 | [3] -0.066 | [4] -0.036

DNAJC2 (UniProt Q99543)
inactive: alvocidib 0.003 | Tubastatin A -0.187 | [1] 0.022 | defactinib 0.024 | [2] -0.089 | encorafenib -0.014 | [3] 0.142 | alisertib -0.018 | [4] -0.031 | gefitinib -0.022

Pulled one by one from the entries so far, 2 records:
DHX32 (UniProt Q7L7V1)
inactive: alvocidib 0.019 | Tubastatin A 0.027 | [1] 0.044 | defactinib -0.043 | encorafenib 0.062 | [3] 0.048 | alisertib 0.017 | gefitinib 0.02

DGKH (UniProt Q86XP1)
inactive: alvocidib 0.039 | Tubastatin A 0.155 | [1] 0.037 | defactinib -0.072 | [2] -0.104 | encorafenib 0.014 | [3] 0.094 | alisertib 0.045 | gefitinib 0.226

(next part)

DOK2 (UniProt O60496)
inactive: alvocidib -0.213 | Tubastatin A -0.195 | [1] -0.159 | [4] 0.094

DLST (UniProt P36957)
inactive: alvocidib -0.004 | Tubastatin A 0.017 | [1] -0.021 | defactinib 0.023 | [2] -0.011 | encorafenib -0.008 | [3] 0.019 | alisertib 0.001 | [4] 0.01 | gefitinib -0.009

DNASE2 (UniProt O00115)
inactive: alvocidib -0.03 | Tubastatin A -0.003 | [1] 0.022 | defactinib 0.001 | [2] 0.035 | encorafenib -0.012 | [3] 0 | alisertib 0.001 | [4] -0.01 | gefitinib 0.015

DMAC1 (UniProt Q96GE9)
inactive: alvocidib 0.038 | Tubastatin A 0.094 | defactinib 0.056
